Measurements: publication PMC5833691
Results are given in words; binding and its absence hold for the method and conditions named. Binding seen in cells or lysates may run through a third protein. Some binding calls cover weakened binding; strength is not graded here. Where a sequence is shown, tags or fusion partners need not be part of it.

Chains of the proteins cited; added tags and fusions are not shown. Residues count along the entry.
UniProt O15321, residues 28-606: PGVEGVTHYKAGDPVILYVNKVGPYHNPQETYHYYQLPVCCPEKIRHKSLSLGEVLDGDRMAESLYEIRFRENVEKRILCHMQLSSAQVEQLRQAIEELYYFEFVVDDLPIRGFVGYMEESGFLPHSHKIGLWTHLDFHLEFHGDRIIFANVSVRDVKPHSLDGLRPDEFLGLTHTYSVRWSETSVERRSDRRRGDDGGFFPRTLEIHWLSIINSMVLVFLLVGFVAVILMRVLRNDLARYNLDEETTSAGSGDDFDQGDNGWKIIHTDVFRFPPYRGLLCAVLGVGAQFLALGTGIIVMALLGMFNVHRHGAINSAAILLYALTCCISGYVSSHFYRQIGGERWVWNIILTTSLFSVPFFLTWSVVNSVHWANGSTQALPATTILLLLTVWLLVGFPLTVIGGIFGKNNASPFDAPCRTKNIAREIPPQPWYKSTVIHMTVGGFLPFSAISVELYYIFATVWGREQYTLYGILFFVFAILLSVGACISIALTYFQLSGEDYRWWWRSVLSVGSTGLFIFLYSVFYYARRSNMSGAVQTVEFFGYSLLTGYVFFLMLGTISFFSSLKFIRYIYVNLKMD

Biological target: T1, Flag-EBAG9 (estrogen receptor-binding fragment-associated antigen 9) (human) (UniProt O00559)
T1 sequence: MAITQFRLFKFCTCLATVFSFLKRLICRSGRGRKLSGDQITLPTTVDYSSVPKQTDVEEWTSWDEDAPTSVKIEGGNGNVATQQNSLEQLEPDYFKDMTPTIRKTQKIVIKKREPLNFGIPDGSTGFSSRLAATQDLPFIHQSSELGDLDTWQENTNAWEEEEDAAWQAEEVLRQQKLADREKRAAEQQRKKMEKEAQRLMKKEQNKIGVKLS
Assay: co-IP; lysate of 293T cells cotransfected with Flag-EBAG9 and HA-TM9SF1; immunoprecipitated with anti-EBAG9, anti-TM9SF1 or control IgG overnight at 4 °C, protein G-sepharose; lysis and wash buffer 20 mM HEPES pH 7.9, 300 mM NaCl, 1 mM EDTA, 15% glycerol, 0.5% Nonidet P-40; western blot with EBAG9 or TM9SF1 antibody

Q: How did the binding turn out when “HA-TM9SF1 (transmembrane 9 superfamily member 1) (from UniProt O15321 28-606)” was run?
A: Its binding is “binds”.
